Assays:
[1] = Decomposition of khushimol on heating vetiver oil with an acid; settings: Example 5, same conditions as in Example 4 (120° C., 8 hours)
[2] = Evaluation of fragrance/odor

With O=C(O)CC(O)(CC(=O)O)C(=O)O [Citric acid] the “Reduced Rate (%) Khushimol” value [1] was 39.9%.

For O=C(O)c1cccnc1 [Nicotinic acid], the “Reduced Rate (%) Khushimol” value [1] was 19.3%.

With C/C(CO)=C1/CCC2=CCCC(C)C2(C)C1 (stereo not shown) [isovalencenol] the “odor strength versus khusimol” value ([2]; compared with the odor of khusimol) was “stronger than the odor of khusimol” and the “effect on the odor of khusimol” value ([2]; odor of khusimol inherent to vetiverol) was “offset the odor of khusimol inherent to vetiverol”.
